# Assay results published in publication PMC6208443 (Nature Communications, 2018).
# How the values were obtained:
# CMT3 = assay: Peptide affinity purification and mass spectrometry, CMT3; type: binding, Arabidopsis thaliana; details: pull-down of nuclear extracts of Arabidopsis flowers with 2 μg biotinylated peptide, 3 h, 4 °C; LC-MS/MS
# Procedure: (§1) To extract the nuclear proteins for peptide affinity purification, 1 g of wild-type Arabidopsis flowers was harvested and ground in liquid nitrogen. […] The filtrates were centrifuged at 2000 g for 15 min at 4 °C to precipitate the nuclei. Nuclear pellets were washed two times with 1 ml of Honda buffer and then were resuspended in 600 μl of Nuclei Lysis Buffer (50 mM Tris-HCl pH 8.0, 150 mM NaCl, 1% NP40, 0.5 mM DTT, 1 mM PMSF, Roche protease inhibitor cocktail). After sonication, nuclei extracts were centrifuged at 20,000 g for 10 min at 4 °C. The supernatant was incubated with 2 μg of biotinylated histone peptides and Streptavidin Magnetic Beads (Thermo Scientific, 88816) for 3 h with rotation at 4 °C. […] After incubation, beads were washed three times with wash buffer 1 (320 mM NaCl, 50 mM Tris-HCl pH 8.0, 0.5% NP40), and three times with wash buffer 2 (150 mM NaCl, 50 mM Tris-HCl pH 8.0).
# For LC-MS/MS analysis, IP beads with captured proteins were lysed in 12 mM sodium deoxycholate (SDC)-sodium lauroyl sarcosinate (SLS): 100 mM Tris-HCl (pH 8.5), 12 mM SDC, and 12 mM SLS. Proteins were reduced and alkylated with 10 mM tris-(2-carboxyethyl) phosphine and 40 mM chloroacetamide at 95 °C for 5 min. The supernatant containing reduced and alkylated proteins was transferred into a new Eppendorf tube and diluted fivefold with 50 mM triethylammonium hydrogen carbonate buffer and digested with 500 ng trypsin (Sigma) overnight. The SDC and SLS were removed by adding 100% acetyl acetate in a ratio 1:1 (vol/vol) sample to acetyl acetate volume ratio. Samples were acidified with 10% trifluoroacetic acid to pH ~3, and desalted by a custom-made stage tip with a styrene divinyl benzene (SDB-XC) membrane (3 M). The dried peptides were resuspended in 30 μL of 0.3% formic acid (FA) with 3% acetonitrile (ACN), quantified by BCA assay (Thermo Fisher Scientific), and injected into an Easy-nLC 1000 (Thermo Fisher Scientific). Peptides were separated on a 45 cm in-house packed column (360 μm OD × 75 μm ID) containing C18 resin (2.2 μm, 100 Å, Michrom Bioresources) with a 30 cm column heater (Analytical Sales and Services) set at 60 °C. The mobile phase buffer consisted of 0.1% FA in ultra-pure water (buffer A) with an eluting buffer of 0.1% FA in 80% ACN (buffer B) run over a linear 65 min gradient of 5%-30% buffer B at a flow rate of 250 nL/min. The Easy-nLC 1000 was coupled online with a Velos Pro LTQ-Orbitrap mass spectrometer (Thermo Fisher Scientific). The mass spectrometer was operated in the data-dependent mode in which a full MS scan (from m/z 350–1500 with the resolution of 30,000 at 400 m/z) was followed by the 10 most intense ions being subjected to collision-induced dissociation (CID) fragmentation. CID fragmentation was performed and acquired in the linear ion trap (normalized collision energy 30%, AGC 3e4, max injection time 100 ms, isolation window 3 m/z, and dynamic exclusion 60 s). The raw files were searched directly against Arabidopsis thaliana database (TAIR10) with no redundant entries using SEQUEST HT algorithm in Proteome Discoverer version 2.2 (Thermo Fisher Scientific). Peptide precursor mass tolerance was set at 15 ppm, and MS/MS tolerance was set to 0.6 Da. Search criteria included a variable modifications of oxidation ( + 15.995 Da) on methionine residues, and acetylation ( + 42.011 Da) at N-terminus of protein, and a static carbamidomethylation of cysteines ( + 57.021 Da). Search was performed with full tryptic digestion and allowed a maximum of two missed cleavages on the peptides analyzed from the sequence database. Relaxed and strict false discovery rates were set for 0.05 and 0.01, respectively.
# AGDP1 = assay: Peptide affinity purification and mass spectrometry, AGDP1; type: binding, Arabidopsis thaliana; details: pull-down of nuclear extracts of Arabidopsis flowers with 2 μg biotinylated peptide, 3 h, 4 °C; LC-MS/MS
# Procedure: as §1
# For LC-MS/MS analysis, IP beads with captured proteins were lysed in 12 mM sodium deoxycholate (SDC)-sodium lauroyl sarcosinate (SLS): 100 mM Tris-HCl (pH 8.5), 12 mM SDC, and 12 mM SLS. […] The dried peptides were resuspended in 30 μL of 0.3% formic acid (FA) with 3% acetonitrile (ACN), quantified by BCA assay (Thermo Fisher Scientific), and injected into an Easy-nLC 1000 (Thermo Fisher Scientific). […]
Substance,Coverage (%) (CMT3),Unique Peptides (CMT3),Coverage (%) (AGDP1)
"H3(1-21): synthesized biotinylated H3(1-21) peptide, EMD Millipore",0,0,
"H3(1-21)K9me1: synthesized biotinylated H3(1-21)K9me1 peptide, EMD Millipore",21.93,14,11.41
"H3(1-21)K9me2: synthesized biotinylated H3(1-21)K9me2 peptide, EMD Millipore",32.54,23,
"H3(1-21)K9me3: synthesized biotinylated H3(1-21)K9me3 peptide, EMD Millipore",23.48,17,
